Results on two molecules are retold here after PMC4782060.

By UniProt entry, the sequences of proteins in these tests, tags left out. Residues count along the entry.
UniProt P08670, residues 102-138: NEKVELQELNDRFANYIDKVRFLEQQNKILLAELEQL

Experiment [1] deals with peptide consisting of vimentin residues 102-138 (human) (UniProt P08670). As to the kind of experiment: SPR; envoplakin PRD and the vimentin 102-138 peptide, in the presence of salt; both purified. (In general: SPR reads the build-up and loss of mass on a sensor chip optically.)
The target in experiment [2] is wild-type human envoplakin plakin repeat domain (PRD), residues Asp1822-Ala2014 (human) (UniProt Q92817). The experiment can be described thus: SAXS; envoplakin PRD alone; 1-5.5 mg ml^-1 (5.5 mg ml^-1 data set analysed) in 100 mM NaCl, 20 mM sodium phosphate, pH 7.2, room temperature; both purified.
The target is the same in experiment [3]. The experiment can be described thus: condition: 21, 44 and 65 μM (equilibrium); 46 μM (velocity); AUC; envoplakin PRD alone; sedimentation equilibrium at 21, 44 and 65 μM and sedimentation velocity at 46 μM; 100 mM NaCl, 20 mM sodium phosphate, pH 7.4, 20 °C; both purified.
Experiment [4] has as its target T1, human envoplakin residues 1542-2014 with a C-terminal FLAG tag, K1847E (human) (UniProt Q92817).
T1 sequence: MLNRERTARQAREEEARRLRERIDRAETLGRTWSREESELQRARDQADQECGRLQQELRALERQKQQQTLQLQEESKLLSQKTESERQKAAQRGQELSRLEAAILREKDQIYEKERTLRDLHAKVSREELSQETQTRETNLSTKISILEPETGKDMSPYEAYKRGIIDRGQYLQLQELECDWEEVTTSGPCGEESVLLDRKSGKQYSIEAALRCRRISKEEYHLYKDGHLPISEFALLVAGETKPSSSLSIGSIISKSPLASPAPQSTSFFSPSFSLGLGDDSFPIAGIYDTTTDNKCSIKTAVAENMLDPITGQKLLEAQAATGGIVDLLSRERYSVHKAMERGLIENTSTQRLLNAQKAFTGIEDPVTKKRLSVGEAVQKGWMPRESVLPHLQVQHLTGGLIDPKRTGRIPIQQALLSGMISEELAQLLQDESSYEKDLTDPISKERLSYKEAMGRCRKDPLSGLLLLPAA
As to the kind of experiment: co-IP; called pull-down assay by the paper: HeLa cells co-transfected with FLAG-tagged envoplakin and HA-tagged periplakin constructs, lysed 48 h later in PBS with 1% Triton X-100; Flag-agarose beads, 45 min at 4 °C; blots with anti-Flag and anti-HA.

The target of experiment [5] is T2, human envoplakin residues 1542-2014 with a C-terminal FLAG tag, K1901E (human) (UniProt Q92817).
T2 sequence: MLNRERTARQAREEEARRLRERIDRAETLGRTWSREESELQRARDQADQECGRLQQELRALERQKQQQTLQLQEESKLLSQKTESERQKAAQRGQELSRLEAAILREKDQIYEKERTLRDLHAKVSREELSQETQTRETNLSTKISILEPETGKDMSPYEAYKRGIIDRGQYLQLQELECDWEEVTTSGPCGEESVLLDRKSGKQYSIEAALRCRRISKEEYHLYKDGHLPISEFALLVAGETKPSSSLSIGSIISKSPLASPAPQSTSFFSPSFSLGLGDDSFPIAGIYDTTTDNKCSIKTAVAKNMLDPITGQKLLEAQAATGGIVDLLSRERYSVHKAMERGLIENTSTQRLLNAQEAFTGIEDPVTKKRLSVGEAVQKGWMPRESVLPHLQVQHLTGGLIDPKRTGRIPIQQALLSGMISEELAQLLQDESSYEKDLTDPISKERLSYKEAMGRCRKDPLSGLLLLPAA
The experiment is described as above.

The target in experiment [6] is T3, human envoplakin residues 1542-2014 with a C-terminal FLAG tag, K2002E (human) (UniProt Q92817).
T3 sequence: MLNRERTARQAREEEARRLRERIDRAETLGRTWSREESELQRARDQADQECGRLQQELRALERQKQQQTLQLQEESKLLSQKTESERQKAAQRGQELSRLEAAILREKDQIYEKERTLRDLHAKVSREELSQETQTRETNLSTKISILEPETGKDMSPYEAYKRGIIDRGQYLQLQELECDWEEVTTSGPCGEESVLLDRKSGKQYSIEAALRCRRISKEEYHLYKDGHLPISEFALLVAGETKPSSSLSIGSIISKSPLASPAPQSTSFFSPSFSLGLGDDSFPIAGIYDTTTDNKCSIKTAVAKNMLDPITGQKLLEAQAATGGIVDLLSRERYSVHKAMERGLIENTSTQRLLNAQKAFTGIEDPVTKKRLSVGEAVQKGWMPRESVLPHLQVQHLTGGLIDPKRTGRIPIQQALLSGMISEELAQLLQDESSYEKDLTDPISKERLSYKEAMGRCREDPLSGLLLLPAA
Described as above.

For experiment [7], the target named is T4, human envoplakin residues 1542-2014 with a C-terminal FLAG tag, R1914E (human) (UniProt Q92817).
T4 sequence: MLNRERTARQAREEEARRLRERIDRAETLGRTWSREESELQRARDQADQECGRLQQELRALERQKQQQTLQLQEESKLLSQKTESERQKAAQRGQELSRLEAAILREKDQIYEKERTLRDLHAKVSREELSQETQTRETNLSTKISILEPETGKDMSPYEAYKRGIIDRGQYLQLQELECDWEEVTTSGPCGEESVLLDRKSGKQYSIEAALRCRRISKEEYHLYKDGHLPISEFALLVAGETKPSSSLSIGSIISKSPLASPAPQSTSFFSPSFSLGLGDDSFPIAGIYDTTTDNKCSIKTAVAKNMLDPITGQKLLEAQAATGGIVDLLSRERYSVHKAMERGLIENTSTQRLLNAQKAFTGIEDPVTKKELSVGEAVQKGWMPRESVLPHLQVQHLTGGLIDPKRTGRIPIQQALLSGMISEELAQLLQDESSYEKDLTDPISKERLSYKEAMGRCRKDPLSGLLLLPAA
The description is as above.

These are yes or no findings as the source states them, for the method shown. For some of these results: Binding seen in cells or lysates may run through a third protein. Some binding calls cover weakened binding; strength is not graded here. For some of these results: Tags and fused reporters may be left off the sequences shown.

B1: wild-type human envoplakin plakin repeat domain (PRD), residues Asp1822-Ala2014 (domain or fragment, UniProt Q92817 1822-2014)
chain: DDSFPIAGIYDTTTDNKCSIKTAVAKNMLDPITGQKLLEAQAATGGIVDLLSRERYSVHKAMERGLIENTSTQRLLNAQKAFTGIEDPVTKKRLSVGEAVQKGWMPRESVLPHLQVQHLTGGLIDPKRTGRIPIQQALLSGMISEELAQLLQDESSYEKDLTDPISKERLSYKEAMGRCRKDPLSGLLLLPAA
For B1, the binding entry is “no binding” in experiment [1], “no binding (tested: 5.5 mg ml^-1)” in experiment [2] and “no binding” in experiment [3].

B2: human periplakin residues 1588-1756 with a C-terminal HA tag (domain or fragment, UniProt O60437 1588-1756)
chain: MAATETRDLRNMTVADSGTNHDSRLWSLERELDDLKRLSKDKDLEIDELQKRLGSVAVKREQRENHLRRSIVVIHPDTGRELSPEEAHRAGLIDWNMFVKLRSQECDWEEISVKGPNGESSVIHDRKSGKKFSIEEALQSGRLTPAQYDRYVNKDMSIQELAVLVSGQK
B2: the binding entry in experiment [4], in experiment [5], in experiment [6] and in experiment [7] was “binds” throughout.
